The exact form of at least one protein or probe is not confirmed. For part of these data: Weaker means in comparison with the reference protein, sequence or condition of that experiment. For part of these data: At least one verdict rests on a figure or table, not on a statement of the authors.
Legend:
Experiment in all cases: EMSA
[1] = system: S5S1-PM (Schizosaccharomyces pombe); settings: 3.5 mM Mg2+, mildly impaired
[2] = system: S5S1-7A (Schizosaccharomyces pombe); settings: 3.5 mM Mg2+, no significant shift implied
[3] = system: S5S1-NON (Schizosaccharomyces pombe); settings: 3.5 mM Mg2+, comparable to wild type

Row | Sequence | binding result [1] | binding result [2] | binding result [3]
1 | TTGATAAGAGGTCATTTTTGCGGATGGCTTAGAGCTTAATTGCTGAATCTGGTGCTGTAGCTCAACATGTTTTAAATATG (double strand) [BA663/BA664 80-mer dsDNA] | binds more weakly | binds more weakly | binds
2 | TTGATAAGAGGTCATTTTTGCGGATGGCTTAGAGCTTAATTGCTGAATCTGGTGCTGTAGCTCAACATGTTTTAAATATG [BA663 80-mer ssDNA] | binds more weakly | binds more weakly | binds

Source: publication doi:10.1101/2023.03.23.533938 (bioRxiv, 2023)
